Reference: article PMC7578833
Results are given in words; binding and its absence hold for the method and conditions named. In cells and extracts the contact can be indirect. A result given as binding can be weak or reduced; the word gives no strength. For some assays here: Tags and fused reporters may be left off the sequences shown. Blank lines part the entries; values can stand above or below the binder they belong to.

Legend:
PDE2A2-GFP = assay: co-IP; HEK293T cells transiently transfected; RIPA lysate; 2 h at 4 °C with anti-RFP/GFP beads (Chromotek) or anti-FLAG M2 beads; washed with Tris-HCl 0.1 M, NaCl 0.3 M, Triton X-100 1%, pH 7.5; Western blot
PDE2A2-RFP = assay: as above

binding (PDE2A2-GFP): binds
B1: endogenous SAMM50 (HEK293T) (protein, UniProt Q9Y512 1-469)
chain: MGTVHARSLEPLPSSGPDFGGLGEEAEFVEVEPEAKQEILENKDVVVQHVHFDGLGRTKDDIIICEIGDVFKAKNLIEVMRKSHEAREKLLRLGIFRQVDVLIDTCQGDDALPNGLDVTFEVTELRRLTGSYNTMVGNNEGSMVLGLKLPNLLGRAEKVTFQFSYGTKETSYGLSFFKPRPGNFERNFSVNLYKVTGQFPWSSLRETDRGMSAEYSFPIWKTSHTVKWEGVWRELGCLSRTASFAVRKESGHSLKSSLSHAMVIDSRNSSILPRRGALLKVNQELAGYTGGDVSFIKEDFELQLNKQLIFDSVFSASFWGGMLVPIGDKPSSIADRFYLGGPTSIRGFSMHSIGPQSEGDYLGGEAYWAGGLHLYTPLPFRPGQGGFGELFRTHFFLNAGNLCNLNYGEGPKAHIRKLAECIRWSYGAGIVLRLGNIARLELNYCVPMGVQTGDRICDGVQFGAGIRFL

binding (PDE2A2-RFP): binds
B2: SAMM50-FLAG (protein, UniProt Q9Y512 1-469)
chain: B1 chain
